Results published in patent US5612174A, “Photographic yellow dye-forming couplers and silver halide color photographic materials containing the same” (Fuji Photo Film Co., Ltd., priority 1994, dated 1997).

Columns and labels:
[1] = Color image fastness to light (retentiveness of color image at initial density 1.5); conditions: fluorescent lamp 80,000 luxes, 14 days
Protocol: (§1) Samples Nos. 401 to 429 were prepared in the same manner as in preparation of sample No. 204, except that 0.20 g/m^2 of the amide compound shown in Table C below was added to the first layer. These samples were exposed to light of a fluorescent lamp of 80,000 luxes for 14 days, and the retentiveness of the color image at the initial density of 1.5 in each sample was obtained. In addition, the samples were stored at 80° C. and 70% RH for 20 days, and the retentiveness of the color image at the initial density of 1.5 in each sample was also obtained.

[2] = Color image fastness to heat and moisture at 80° C., 70% RH (retentiveness of color image at initial density 1.5); conditions: 20 days
Protocol: as §1

[3] = amide compound S-1 (0.20 g/m^2)
[4] = amide compound S-2 (0.20 g/m^2)
[5] = amide compound S-4 (0.20 g/m^2)
[6] = amide compound S-5 (0.20 g/m^2)
[7] = amide compound S-9 (0.20 g/m^2)
[8] = amide compound S-18 (0.20 g/m^2)
[9] = no amide compound, 80° C., 70% RH

Structure (SMILES): CCCCCCCCC=CCCCCCCCC(=O)Nc1ccc(Cl)c(NC(=O)C(C(=O)C(C)(C)C)N2C(=O)NC(C)(C)C2=O)c1 (stereo not shown) [Y-1]
- retentiveness of the color image, Xe [1, 3]: 88
- retentiveness of the color image, Xe [1, 4]: 85
- retentiveness of the color image, Xe [1, 5]: 87
- retentiveness of the color image, Xe [1, 6]: 85
- retentiveness of the color image, Xe [1, 7]: 84
- retentiveness of the color image, Xe [1, 8]: 83
- retentiveness of the color image, Xe ([1]; no amide compound): 75
- retentiveness of the color image, 80° C., 70% RH [2, 3]: 89
- retentiveness of the color image, 80° C., 70% RH [2, 4]: 86
- retentiveness of the color image, 80° C., 70% RH [2, 5]: 88
- retentiveness of the color image, 80° C., 70% RH [2, 6]: 86
- retentiveness of the color image, 80° C., 70% RH [2, 7]: 85
- retentiveness of the color image, 80° C., 70% RH [2, 8]: 84
- retentiveness of the color image, 80° C., 70% RH [2, 9]: 77

Structure (SMILES): CCCCCCC(O)CC=CCCCCCCCC(=O)Nc1ccc(Cl)c(NC(=O)C(C(=O)C(C)(C)C)N2C(=O)NC(C)(C)C2=O)c1 (stereo not shown) [Y-4]
- retentiveness of the color image, Xe [1, 3]: 86
- retentiveness of the color image, Xe [1, 5]: 85
- retentiveness of the color image, Xe ([1]; no amide compound): 73
- retentiveness of the color image, 80° C., 70% RH [2, 3]: 87
- retentiveness of the color image, 80° C., 70% RH [2, 5]: 86
- retentiveness of the color image, 80° C., 70% RH [2, 9]: 75

Structure (SMILES): CCCCCCCCCCCCCCCCCC(=O)Nc1ccc(Cl)c(NC(=O)C(C(=O)C(C)(C)C)N2C(=O)NC(C)(C)C2=O)c1 (stereo not shown) [RY-2, reference compound]
- retentiveness of the color image, Xe ([1]; no amide compound): 65
- retentiveness of the color image, 80° C., 70% RH [2, 9]: 67

Structure (SMILES): CCCCCCCCC=CCCCCCCCC(=O)Nc1ccc(OC)c(NC(=O)C(C(=O)C(C)(C)C)N2C(=O)NC(C)(C)C2=O)c1 (stereo not shown) [Y-13]
- retentiveness of the color image, Xe [1, 3]: 86
- retentiveness of the color image, Xe [1, 5]: 85
- retentiveness of the color image, Xe ([1]; no amide compound): 75
- retentiveness of the color image, 80° C., 70% RH [2, 3]: 85
- retentiveness of the color image, 80° C., 70% RH [2, 5]: 84
- retentiveness of the color image, 80° C., 70% RH [2, 9]: 76

Structure (SMILES): CCC=CCC=CCC=CCCCCCCCC(=O)Nc1ccc(Cl)c(NC(=O)C(C(=O)C(C)(C)C)N2C(=O)NC(C)(C)C2=O)c1 (stereo not shown) [Y-3]
- retentiveness of the color image, Xe [1, 3]: 87
- retentiveness of the color image, Xe [1, 5]: 86
- retentiveness of the color image, Xe ([1]; no amide compound): 74
- retentiveness of the color image, 80° C., 70% RH [2, 3]: 86
- retentiveness of the color image, 80° C., 70% RH [2, 5]: 85
- retentiveness of the color image, 80° C., 70% RH [2, 9]: 75

Structure (SMILES): CCCCCC=CCC=CCCCCCCCC(=O)Nc1ccc(Cl)c(NC(=O)C(C(=O)C(C)(C)C)N2C(=O)NC(C)(C)C2=O)c1 (stereo not shown) [Y-2]
- retentiveness of the color image, Xe [1, 3]: 87
- retentiveness of the color image, Xe [1, 5]: 86
- retentiveness of the color image, Xe ([1]; no amide compound): 74
- retentiveness of the color image, 80° C., 70% RH [2, 3]: 87
- retentiveness of the color image, 80° C., 70% RH [2, 5]: 87
- retentiveness of the color image, 80° C., 70% RH [2, 9]: 76
